Measurements from PubChem BioAssay (Tox21).
Where “and” joins values, the source holds several entries; their conditions need not be identical. Identical values can stand only once. This is a selection; strong and weak results do not stand in their true shares. Results filed as inconclusive are left out. Some structures have more than one record in an assay (separate samples or runs), and their calls can disagree. Calls of active or inactive are those of the source. Unless noted, calls come from the whole dose curve.

Chains of the proteins cited; added tags and fusions are not shown.
UniProt P28223, whole entry, looked up: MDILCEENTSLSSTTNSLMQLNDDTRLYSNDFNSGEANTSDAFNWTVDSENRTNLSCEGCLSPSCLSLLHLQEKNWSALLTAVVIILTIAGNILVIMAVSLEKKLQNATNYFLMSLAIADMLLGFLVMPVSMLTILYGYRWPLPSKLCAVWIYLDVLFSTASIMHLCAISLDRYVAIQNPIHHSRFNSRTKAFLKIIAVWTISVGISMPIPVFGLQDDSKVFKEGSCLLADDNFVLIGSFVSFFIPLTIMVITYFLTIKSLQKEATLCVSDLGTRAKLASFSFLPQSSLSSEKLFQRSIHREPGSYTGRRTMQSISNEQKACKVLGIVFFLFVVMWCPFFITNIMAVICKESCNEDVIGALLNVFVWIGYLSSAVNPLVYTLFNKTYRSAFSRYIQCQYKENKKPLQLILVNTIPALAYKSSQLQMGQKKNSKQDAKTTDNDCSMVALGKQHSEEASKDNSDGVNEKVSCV
UniProt P14416, whole entry, looked up: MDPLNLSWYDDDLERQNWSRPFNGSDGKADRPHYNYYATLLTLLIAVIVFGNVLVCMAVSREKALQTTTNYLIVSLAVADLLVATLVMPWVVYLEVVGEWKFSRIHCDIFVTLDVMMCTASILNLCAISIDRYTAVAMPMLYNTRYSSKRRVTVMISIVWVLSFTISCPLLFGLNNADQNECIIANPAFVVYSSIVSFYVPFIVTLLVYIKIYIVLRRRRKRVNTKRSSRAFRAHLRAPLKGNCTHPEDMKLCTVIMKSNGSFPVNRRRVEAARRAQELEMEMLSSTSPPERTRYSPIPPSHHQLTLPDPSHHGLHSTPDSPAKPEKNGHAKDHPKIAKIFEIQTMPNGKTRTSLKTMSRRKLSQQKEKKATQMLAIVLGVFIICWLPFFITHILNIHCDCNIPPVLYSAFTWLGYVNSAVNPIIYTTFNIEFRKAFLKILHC

Key:
[1] = target: 5-hydroxytryptamine receptor 2A (Homo sapiens) (UniProt P28223); test: 5-hydroxytryptamine receptor 2A (HTR2A) small molecule antagonists, cell-based qHTS assay (AID 1963586); settings: HTR2A-CHO cells, DOI-induced calcium flux, fluorescence; note: nearly all actives have a fitted effect of over 45% in size
Text: (§1) National Center for Advancing Translational Sciences [NCATS]
(§2) Division of Preclinical Innovation [DPI]
(§3) U.S. Environmental Protection Agency [EPA]
(§4) National Institutes of Environmental Health Sciences [NIEHS]
(§5) National Toxicology Program [NTP]
(§6) U.S. Food and Drug Administration [FDA]
(§7) The HTR2A receptor is a subtype of the 5-HT2 receptor that belongs to the serotonin receptor family and is a G protein-coupled receptor (GPCR). The HTR2A-CHO cell line stably expressing human 5-hydroxytryptamine receptor 2A (HTR2A) can be used for screening antagonists of interactions between 5-HT2 and its ligands. The HTR2A-CHO calcium flux assay is a homogeneous fluorescence-based assay for detecting the intracellular calcium level using FDSS kinetic plate reader system.
Tox21 Assay Protocol Summary:
HTR2A-CHO cells were dispensed at 2000 cells/3uL/well in 1536-well black-clear bottom plates using a Multidrop Dispenser. After the assay plates were incubated at a 37 C/5% CO2 incubator for 18 h, 3 uL of Dye Loading Buffer was transferred to the assay plate by a Flying Reagent Dispenser. The assay plates were incubated at 37 C for 1h. For antagonist mode, 23 nL of compounds dissolved in DMSO, positive controls or DMSO only was transferred to the assay plate by a pin tool. […] The fluorescence intensity in the plates was measured using FDSS 7000EX kinetic plate reader for 3 min at 1 sec intervals.

[2] = target: 5-hydroxytryptamine receptor 2A (Homo sapiens) (UniProt P28223); test: 5-hydroxytryptamine receptor 2A (HTR2A) small molecule agonists, cell-based qHTS assay (AID 1963587); settings: HTR2A-CHO cells, calcium flux fluorescence, agonist mode; note: nearly all actives have a fitted effect of over 30% in size
Text: as §1, §2, §3, §4, §5, §6
as §7, with “agonists” for “antagonists”
HTR2A-CHO cells were dispensed at 2000 cells/3uL/well in 1536-well black-clear bottom plates using a Multidrop Dispenser. After the assay plates were incubated at a 37 C/5% CO2 incubator for 18 h, 3 uL of Dye Loading Buffer was transferred to the assay plate by a Flying Reagent Dispenser. The assay plates were incubated at 37 C for 1h. For agonist mode, 23 nL of compounds dissolved in DMSO, positive controls or DMSO only was transferred to the assay plate by a pin tool. The fluorescence intensity in the plates was measured using FDSS 7000EX kinetic plate reader for 2 min at 1 sec intervals.

[3] = target: Beta-2 adrenergic receptor (Homo sapiens) (UniProt P07550); test: Adrenergic beta2 receptor (ADRB2) small molecule antagonists, cell-based qHTS assay (AID 1963592); settings: CHO-ADRB2 cells, isoproterenol-stimulated cAMP HTRF ratio, 0.5 h; note: nearly all actives have a fitted effect of over 50% in size
Text: U.S. Tox21 Program National Center for Advancing Translational Sciences [NCATS] Division of Preclinical Innovation [DPI] U.S. Environmental Protection Agency [EPA] National Institutes of Environmental Health Sciences [NIEHS] National Toxicology Program [NTP] U.S. Food and Drug Administration [FDA] Tox21 Assay Overview: Beta adrenergic receptors (Beta-ARs) belong to the G-protein coupled receptor (GPCR) superfamily, includes three subtypes - beta1, beta2, and beta3. Beta1-AR is the predominant receptor subtype expressed in the heart, and beta2-AR is expressed in the kidney, lung, blood vessel and in the heart, and beta3 is found in the adipocytes. […] The principle of cAMP-Gs dynamic assay is based on HTRF technology, which facilitates the fluorescence resonance energy transfer (FRET) between donor Europium cryptate and acceptor d2-labeled cAMP. […]
Tox21 Assay Protocol Summary: CHO-ADRB2 cells were dispensed at 1,000/well in 4uL assay medium into white/solid 1536-well plates (Greiner Bio-One North America Inc., Monroe, NC) using a Multidrop Combi dispenser (ThermoFisher Scientific, Waltham, MA). […] The fluorescence signal was measured at two different wavelengths (665nm and 615nm) using an Envision plate reader (Perkin Elmer, Shelton, CT). Data were expressed as the ratio of 665 nm/615 nm.

[4] = target: D(2) dopamine receptor (Homo sapiens) (UniProt P14416); test: Dopamine D2 receptor (DRD2) small molecule antagonists, cell-based qHTS assay (AID 1963595; active = well fitted inhibition curve with a large enough effect in the signal ratio in the repeat runs, with a control signal flat; the % refers to the signal ratio); settings: HEK293-DRD2 cAMP HTRF antagonist mode
Outline: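 Human DRD2 antagonist qHTS measuring cAMP by HTRF. The cells are exposed to compound for 10 min, then to NKH477 (200 nM) and quinpirole (12 nM) for 30 min at RT, with Ro20-1724 (0.1 mM) present throughout.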
Potency is the fitted concentration of half-maximal effect.

## CCCN[C@H]1CCc2nc(N)sc2C1
[1]
  Potency: active: 4.03 µM
[2]
  Potency: active: 1.87 µM and active: 4.77 µM

## COc1cc(C(C)=O)ccc1OCCCN1CCC(c2noc3cc(F)ccc23)CC1
[1]
  Potency: active: 0.0018 µM

## Cc1cc(C(C)(C)C)cc(C)c1CC1=NCCN1
[2]
  Potency: active: 134 nM

## CN1CCC[C@@H]1CCO[C@](C)(c1ccccc1)c1ccc(Cl)cc1
[3]
  Potency: active: 29.8 µM

## CNCCCC12CCC(c3ccccc31)c1ccccc12
[4]
  Potency: active: 61.1 µM
